These are literature values, as cited in patent US20140031324A1, “COMPOUND COMPOSITION FOR INHALATION USED FOR TREATING ASTHMA” (Intech Biopharm Ltd., priority 2010, published 2014).

The conditions of this data set: long acting beta-2 agonists (LABA); cited from earlier work.

For `COc1ccc(CC(C)NCC(O)c2ccc(O)c(NC=O)c2)cc1` (stereo not shown) [Formoterol], the duration of action entry was “up to twelve”.
